Measured values as given in US10342809B2, “Neuroactive 19-alkoxy-17-substituted steroids, prodrugs thereof, and methods of treatment using same” (priority 2012, dated 2019).

Tests used:
[1] = tested on: picrotoxin binding site on GABAA receptors; experiment: [35S]-TBPS displacement (inhibition of [35S]-TBPS binding); conditions: Hill coefficient of the displacement curve; ± SEM
Excerpt: The IC50 values for non-competitive displacers of [^35S]-TBPS from the picrotoxin binding site on GABAA receptors are reported in Table 1.

[2] = tested on: Tadpole; experiment: Tadpole loss of righting reflex (LRR) and loss of swimming reflex (LSR); assay type: in vivo; conditions: Hill coefficient
Experimental: Table 3 discloses the anesthetic effects of the compounds of the present disclosure. In particular, the anesthetic effect of the compounds of the present disclosure on Loss of Righting Reflex (LRR) and Loss of Swimming Reflex (LSR).
Methods used are known in the art (see Jiang, X., et al.). Error limits are calculated as standard error of the mean (N=10 or more animals at each of five or more different concentrations).

COC[C@]12CC[C@@H](O)C[C@@H]1CC[C@@H]1[C@@H]2CC[C@]2(C)C(=O)CC[C@@H]12 [Compound 11, (3α,5α)-3-Hydroxy-19-methoxyandrostan-17-one]
nHill, [35S]-TBPS binding [1]: 0.95 ± 0.15 | Tadpole LRR nHill ([2]; loss of righting reflex): −1.81 ± 0.97 | Tadpole LSR nHill ([2]; loss of swimming reflex): −36.2 ± 0.2
